Results on 34 compounds are retold here after PubChem BioAssay AID2685 (National Center for Advancing Translational Sciences (NCATS), 2010).

The experiment can be described thus: qHTS Assay for Lipid Storage Modulators in Drosophila S3 Cells.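 For cell number change: cells counted by Cell Tracker Red CMTPX staining in the red channel.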 The following applies: BODIPY lipid droplet fluorescence, 18-24 h; for cell number change: measured here: cell count max response, cells fed with added oleic acid. In short, it runs like this: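 Drosophila S3 cells loaded with oleic acid (400 uM, as added) and compounds at several concentrations; lipid droplets imaged by 488-nm laser-scanning cytometry, 500–530 nm intensity and object ratio to cell channel. Percent activity normalized to 20 uM Triacsin C.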
(qHTS replaces the single test concentration by a dilution series.)

Setting [1] is: measured here: cell number channel AC50, cells fed with added oleic acid.
Where [2] appears, read: measured here: lipid fluorescence (Fed channel) AC50, cells fed with added oleic acid.

The list shows a part of the results. Further columns of the screen follow, without active or inactive calls. Compounds called inactive in the main read-out are mostly missing here. Words in brackets tell the shape of the fitted curve; partial curves, single points and poor fits give uncertain potencies.

On to `CC(C)OP(=O)(OC(C)C)C(O)c1ccc(N(C)C)cc1` (stereo not given), for which the cell number change is -23.5%. The AC50 under setting [1] is 2.06 µM [rising, partial curve]. For the same compound, the AC50 under setting [2] is 14.6 µM [falling, single point].
Regarding `O=C(Nc1ccon1)c1cccc(S(=O)(=O)N2CCCCCC2)c1`, the AC50 under setting [2] was 0.58 µM [falling, single point].
`Cc1ccc(C(=O)C2=C(O)C(=O)N(c3ncccn3)C2c2cccc(Cl)c2)o1` (stereo not given): the cell number change turned out to be 1.79%.
Consider `COc1ccc(N(CC(=O)Nc2ccc(C)cn2)S(=O)(=O)c2c(C)nn(C)c2C)cc1`, for which the cell number change was 40.5%. Besides, the AC50 under setting [1] is 13 µM [rising, partial curve, poor fit]. Further, the half-maximal activity concentration (AC50) under setting [2] was 29.1 µM [rising, partial curve, poor fit].
Turning to `O=S(=O)(/N=C(\c1ccc(Cl)cc1)N1CCOCC1)c1ccccc1`, the cell number change was -44.5%. Besides, the AC50 under setting [1] is 2.31 µM [falling, full curve]. Under setting [2], the AC50 was 18.4 µM [falling, partial curve].
As for `Cc1ccc(C)c(S(=O)(=O)N2CCN(C(=O)CN3C(=O)NC(C)(C)C3=O)CC2)c1`, the cell number change stood at 33.5%. Also, the AC50 under setting [1] was 11.6 µM [rising, single point].
Turning to `COC(=O)c1ccc(-c2ccc(CNCC(O)c3ccccc3)o2)cc1` (stereo not given), the cell number change is 64.6%. Moreover, the AC50 under setting [1] was 9.2 µM [rising, partial curve, poor fit]. For the same compound, the AC50 under setting [2] is 8.2 µM [rising, partial curve].
On to `CN(C)C(CNC1CC(C)(C)NC(C)(C)C1)c1cccc(F)c1` (stereo not given), for which the cell number change was -3.48%. The AC50 under setting [2] is 1.46 µM [falling, partial curve].
Turning to `O=C1c2cccc3c(N4CCCCC4)ccc(c23)C(=O)N1c1ccc(O)cc1`, the cell number change was -96.3%. For the same compound, under setting [1], the AC50 is 0.291 µM [falling, partial curve]. Also, the AC50 under setting [2] is 0.058 µM [falling, full curve].
On to `N#Cc1ccccc1NC(=O)c1ccc2c(c1)OCCO2`, for which the cell number change was -3.95%.
As to `COc1ccc(N=C2SCC(=O)N2c2ccc(OC)cc2)cc1`, the cell number change came to 46.1%. Moreover, under setting [1], the AC50 was 23.1 µM [rising, single point]. In addition, the concentration at half-maximal activity (AC50) under setting [2] is 1.16 µM [rising, full curve, poor fit].
As for `O=C(COC(=O)c1cc(-c2cccc3ccccc23)nc2ccccc12)NC1CCS(=O)(=O)C1` (stereo not given), the cell number change was found to be 4.2%. For the same compound, the AC50 under setting [2] was 0.326 µM [rising, full curve, poor fit].
`COc1ccc(C(CC(=O)Nc2cc(OC)cc(OC)c2)n2cccc2)cc1` (stereo not given): the cell number change came to 0.475%.
Turning to `O=C(Nc1ccc(Cl)cc1)c1nc[nH]c1C(=O)N1CCc2ccccc2C1`, the cell number change is -30.1%. Besides, the AC50 under setting [1] was 29.1 µM [falling, single point]. Also, the AC50 under setting [2] is 0.366 µM [falling, single point].
Consider `COc1cccc2c1OC1(C)CC2/C(=C(\C)O)C(=O)N1` (stereo not given), for which the cell number change was determined as 0.891%. Also, the AC50 under setting [2] is 6.51 µM [rising, partial curve].
Turning to `COc1ccc2[nH]c(C)c(CCNc3ccc(C(F)(F)F)cc3[N+](=O)[O-])c2c1`, the cell number change is -20.1%. The AC50 under setting [2] was 14.6 µM [falling, single point].
`Cc1ccc2nc(-c3cccnc3)cc(C(=O)N3CCN(c4ccc([N+](=O)[O-])cc4)CC3)c2c1`: the AC50 under setting [2] was 13 µM [falling, partial curve, poor fit].
For the compound `O=C(Nc1ccc2ccccc2c1)c1ccccc1F`, the cell number change was -6.35%. Moreover, under setting [2], the AC50 was 29.1 µM [rising, single point].
As to `CN(C(=O)CSc1nnc2ccccn12)C1CCS(=O)(=O)C1` (stereo not given), the cell number change is -52.6%. In addition, the AC50 under setting [1] was 1.3 µM [falling, full curve]. Besides, the AC50 under setting [2] was 16.4 µM [falling, partial curve].
As to `CC(C)=CCCC1=CCC(/C(C)=N/NC(N)=O)CC1` (stereo not given), the cell number change is -25.5%. Under setting [1], the AC50 was 1.16 µM [falling, full curve, poor fit]. Further, the AC50 under setting [2] was 2.06 µM [falling, partial curve].
`O=C(NCc1ccco1)c1ccc(=O)oc1`: the cell number change was -6.1%. The AC50 under setting [2] is 0.259 µM [falling, full curve].
`COc1cc([N+](=O)[O-])ccc1NC(=O)C[n+]1cccc(C)c1`: the cell number change is -18.2%. The concentration at half-maximal activity (AC50) under setting [2] is 0.259 µM [falling, full curve].
Turning to `Cc1cccc(C(=O)N=c2c(C#N)cc3c(=O)n4cccc(C)c4nc3n2Cc2ccco2)c1`, the cell number change was 41%. Further, the AC50 under setting [1] is 0.103 µM [rising, full curve]. The concentration at half-maximal activity (AC50) under setting [2] is 0.58 µM [rising, full curve].
In the case of `COc1ccccc1N1CCN(C(=O)c2sc3ncnc(N4CCN(c5ccccn5)CC4)c3c2C)CC1`, the cell number change worked out at 21.8%. For the same compound, the AC50 under setting [1] was 0.0517 µM [rising, full curve, poor fit].
In the case of `COc1ccc(S(=O)(=O)N2CCN(CCC(=O)Nc3ccccc3F)CC2)cc1`, the cell number change came out at 7.64%. Further, the AC50 under setting [2] is 16.4 µM [rising, partial curve].
With `O=C(Nc1ccc2nc(-c3ccc4nc[nH]c4c3)[nH]c2c1)c1cccs1`, the AC50 under setting [2] is 5.17 µM [falling, partial curve].
On to `CCCSc1ncc(Cl)c(C(=O)Nc2ccc(S(=O)(=O)Nc3ncccn3)cc2)n1`, for which the cell number change was -28.3%.
With `CN(C)c1ccc(/C=C/c2ccc3ccccc3[n+]2C)cc1`, the cell number change is -37.5%. The AC50 under setting [1] was 2.31 µM [falling, full curve]. Further, the AC50 under setting [2] was 2.31 µM [falling, full curve].
Take `COc1cccc(NC(=O)Cn2c3ccc(F)cc3c3nc4n(c(=O)c32)CCS4)c1`: under setting [2], the half-maximal activity concentration (AC50) was 16.4 µM [falling, partial curve].
`COCCn1c(SCC(=O)Nc2ncc(C)s2)nc2sc3c(c2c1=O)CCC3`: the cell number change was -8.73%. The half-maximal activity concentration (AC50) under setting [2] is 2.06 µM [rising, partial curve].
In the case of `Clc1ccc(CSCCc2ccncc2)cc1`, the cell number change was -71.6%. For the same compound, the AC50 under setting [1] is 25.9 µM [falling, single point]. Under setting [2], the concentration at half-maximal activity (AC50) is 3.66 µM [rising, partial curve].
On to `CC(=O)Nc1ccc(NC(=O)CN(C)S(=O)(=O)c2ccc3nc(C)sc3c2)cc1`, for which the cell number change is 54.5%. Besides, the AC50 under setting [1] was 7.31 µM [rising, single point]. Moreover, the concentration at half-maximal activity (AC50) under setting [2] is 4.11 µM [falling, partial curve].
In the case of `O=C(COC(=O)C1CCC1)NCc1ccc(F)cc1`, the cell number change is -34.6%. Also, the AC50 under setting [1] is 25.9 µM [falling, single point]. Besides, under setting [2], the concentration at half-maximal activity (AC50) is 23.1 µM [falling, partial curve].
As for `COc1cc(CC(=O)OCC(=O)Nc2cc(S(=O)(=O)N3CCCC3)ccc2Cl)cc(OC)c1OC`, the cell number change was 34.9%. Also, the AC50 under setting [1] is 1.46 µM [rising, partial curve, poor fit]. Also, the AC50 under setting [2] was 0.651 µM [rising, full curve].

Usually AC50 stands for the midpoint of the concentration-response curve, whichever way the signal moves. Higher therefore signals activity only at high concentration.
